Five substances from paper PMC514542 can be followed below.

By UniProt entry, the sequences of proteins in these tests, tags left out. Where a name states a change or a piece, a line headed by the entry shows the natural chain unless it says otherwise. Chains listed by the source or under a name are the forms on record and can include a tag or linker. Residues count along the entry.
UniProt Q13547: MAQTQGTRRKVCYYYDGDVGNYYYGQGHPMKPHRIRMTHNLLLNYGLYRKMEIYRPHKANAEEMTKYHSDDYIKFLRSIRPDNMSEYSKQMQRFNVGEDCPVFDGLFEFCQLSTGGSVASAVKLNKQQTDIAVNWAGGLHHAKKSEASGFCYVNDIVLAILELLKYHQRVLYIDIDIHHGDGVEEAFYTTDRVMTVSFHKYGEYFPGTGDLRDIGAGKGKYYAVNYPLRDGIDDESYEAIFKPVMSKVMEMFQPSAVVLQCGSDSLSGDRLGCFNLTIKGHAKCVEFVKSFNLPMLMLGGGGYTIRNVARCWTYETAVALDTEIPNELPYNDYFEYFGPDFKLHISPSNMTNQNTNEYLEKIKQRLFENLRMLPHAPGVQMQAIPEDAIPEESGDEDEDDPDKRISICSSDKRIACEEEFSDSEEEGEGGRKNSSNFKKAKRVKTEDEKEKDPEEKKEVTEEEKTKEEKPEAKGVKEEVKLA
UniProt P17844: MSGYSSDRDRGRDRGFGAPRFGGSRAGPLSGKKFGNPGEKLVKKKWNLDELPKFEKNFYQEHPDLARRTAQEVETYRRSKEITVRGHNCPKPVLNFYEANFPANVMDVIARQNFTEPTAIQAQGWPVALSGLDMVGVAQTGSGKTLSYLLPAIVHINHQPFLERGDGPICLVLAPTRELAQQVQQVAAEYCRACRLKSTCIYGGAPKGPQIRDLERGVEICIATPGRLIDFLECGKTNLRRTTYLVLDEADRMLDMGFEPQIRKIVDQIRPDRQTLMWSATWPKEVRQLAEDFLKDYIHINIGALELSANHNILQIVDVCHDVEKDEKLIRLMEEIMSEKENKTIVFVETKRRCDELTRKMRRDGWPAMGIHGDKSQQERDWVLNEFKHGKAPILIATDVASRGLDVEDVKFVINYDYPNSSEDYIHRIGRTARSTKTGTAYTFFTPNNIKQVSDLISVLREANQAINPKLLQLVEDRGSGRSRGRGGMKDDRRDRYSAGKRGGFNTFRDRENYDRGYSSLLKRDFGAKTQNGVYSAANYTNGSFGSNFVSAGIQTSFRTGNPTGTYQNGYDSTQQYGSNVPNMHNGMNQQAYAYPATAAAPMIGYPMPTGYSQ
UniProt Q92841: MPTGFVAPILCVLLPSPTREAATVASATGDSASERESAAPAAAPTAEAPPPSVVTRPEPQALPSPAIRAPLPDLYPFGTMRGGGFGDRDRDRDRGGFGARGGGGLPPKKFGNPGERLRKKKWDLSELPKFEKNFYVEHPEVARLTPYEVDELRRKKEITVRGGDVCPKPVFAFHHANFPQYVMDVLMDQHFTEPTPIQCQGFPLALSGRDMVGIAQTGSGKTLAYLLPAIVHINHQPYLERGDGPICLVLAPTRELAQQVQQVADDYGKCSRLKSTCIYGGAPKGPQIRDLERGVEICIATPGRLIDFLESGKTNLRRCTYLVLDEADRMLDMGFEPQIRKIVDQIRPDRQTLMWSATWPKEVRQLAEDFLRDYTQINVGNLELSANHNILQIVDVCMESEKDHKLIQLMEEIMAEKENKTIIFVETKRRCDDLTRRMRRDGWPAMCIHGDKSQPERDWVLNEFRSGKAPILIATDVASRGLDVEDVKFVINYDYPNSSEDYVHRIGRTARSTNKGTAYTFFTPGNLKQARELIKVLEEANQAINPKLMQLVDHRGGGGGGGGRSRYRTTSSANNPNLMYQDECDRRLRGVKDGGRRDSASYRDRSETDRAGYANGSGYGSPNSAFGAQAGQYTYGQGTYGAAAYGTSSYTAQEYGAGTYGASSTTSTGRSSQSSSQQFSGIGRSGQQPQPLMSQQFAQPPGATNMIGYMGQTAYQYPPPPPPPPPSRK
myc-tagged p72: residues 80-729 of Q92841
GAL4-tagged p72 deletion derivative, residues 1-474: residues 80-553 of Q92841

Results are given in words; binding and its absence hold for the method and conditions named. Binding seen in cells or lysates may run through a third protein. Some results given as binding are weak or reduced against the parent protein; the word gives no strength.

The target of assay [1] is histone deacetylase 1 (HDAC1), endogenous (human (endogenous in U2OS and 293)) (UniProt Q13547). As to the kind of experiment: co-IP; HDAC1 immunoprecipitated with an HDAC1-specific rabbit polyclonal antibody and protein G sepharose from nuclear extracts (U2OS untransfected; 293 transfected), RNAse/DNAse-treated, buffer D (20 mM Hepes pH 7.9, 150 mM NaCl), 1 h at 4°C; partner detected by western blot.

A further assay concerns the target myc-tagged p68 (UniProt P17844). In words: co-IP; myc-tagged p68/p72 immunoprecipitated with the myc epitope antibody from nuclear extracts of transfected 293 cells, RNAse/DNAse-treated, buffer D (150 mM NaCl), 1 h at 4°C; HDAC1 detected by western blot.
The target of the next assay is myc-tagged p72 (UniProt Q92841). Described as above.

With “myc-tagged p72 (from UniProt Q92841-1 1-650)”, the binding entry in assay [1] is recorded as “binds”.
Same read-out and setting: then “p68 (Ddx5) DEAD box RNA helicase, endogenous (from UniProt P17844 1-614)”, with “binds”; and “GAL4-tagged p68 deletion derivative, residues 1-478 (from UniProt P17844 1-478) (domain or fragment)”, with “binds”.
With “GAL4-tagged p72 deletion derivative, residues 1-474 (from UniProt Q92841-1 1-474) (domain or fragment)”, the binding entry in assay [1] is listed as “binds”.
Take “histone deacetylase 1 (HDAC1), endogenous (from UniProt Q13547 1-482)”: the binding result with myc-tagged p68 and with myc-tagged p72 was “binds” throughout.
